Data as given in PubChem BioAssay AID1159578 (Peter MacCallum Cancer Centre, 2015)

Aim: 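siRNA pools altering how lymphatic endothelial cells close a scratch wound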 (primary screen)
Cell system: human lymphatic endothelial cells
Reagents: siRNA pool against human genes, 40 nM
Timing: 48 h after transfection
Read-out: 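High-content imaging of dye-stained cells in a scratch assay measures filled wound area and nuclei per well; duplicate means given as ratio to mock and robust z-score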
Direction: migration robust z-score: higher = faster migration into the scratch; nuclei per well: higher = more cells in the well
Call rule: 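Pools averaging fewer than 3300 nuclei are never called; remaining pools count as changed when migration robust z lies outside -2 to 2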
Meaning of the calls: active = migration changed; inactive = no migration change, or too few cells
In all, the deposit lists about 18,000 reagents; below is a part drawn at random. In the full data, about 1,030 (5.7%) were called active. 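Inactive calls also include pools with fewer than 3300 nuclei, whose migration was not assessed.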 Raw values are not corrected between plates. Reagents against one gene are numbered here. Not all columns of the deposit are shown. Reagent sequences are not shown.

What did the screen give for TGFB1?
migration robust z-score: 0.24; nuclei per well, duplicate mean: 5005; outcome: inactive

For JADE2, what does the deposit list?
migration robust z-score: 0.8; nuclei per well, duplicate mean: 5820; outcome: inactive

How did the screen score RFPL2?
migration robust z-score: -0.54; nuclei per well, duplicate mean: 4476; outcome: inactive

For ST8SIA5, how do the results read?
migration robust z-score: -1.02; nuclei per well, duplicate mean: 5820; outcome: inactive

With SDS, what does the deposit list?
migration robust z-score: -0.18; nuclei per well, duplicate mean: 4683; outcome: inactive

With INF2, what was measured?
migration robust z-score: -3.07; nuclei per well, duplicate mean: 2913; outcome: inactive

With GJA3, how do the results read?
migration robust z-score: -0.26; nuclei per well, duplicate mean: 5764; outcome: inactive

With PRMT6, what does the deposit list?
migration robust z-score: -1.4; nuclei per well, duplicate mean: 5836; outcome: inactive

For PEPD, what was measured?
migration robust z-score: 0.21; nuclei per well, duplicate mean: 5539; outcome: inactive

What is on record for NAIP?
migration robust z-score: -0.18; nuclei per well, duplicate mean: 5258; outcome: inactive

Which result is listed for OR13C2?
migration robust z-score: 0.29; nuclei per well, duplicate mean: 5219; outcome: inactive

For AR, what was measured?
migration robust z-score: -0.49; nuclei per well, duplicate mean: 7074; outcome: inactive

With TUBA8, what does the deposit list?
migration robust z-score: -0.9; nuclei per well, duplicate mean: 6517; outcome: inactive

What is on record for INO80D?
migration robust z-score: 0.06; nuclei per well, duplicate mean: 5381; outcome: inactive

With PRMT9, what does the deposit list?
migration robust z-score: -0.19; nuclei per well, duplicate mean: 5006; outcome: inactive

For ORC1, how do the results read?
migration robust z-score: 0.82; nuclei per well, duplicate mean: 5874; outcome: inactive

With LCOR #1, how do the results read?
migration robust z-score: -0.64; nuclei per well, duplicate mean: 5518; outcome: inactive

What is on record for LCOR #2?
migration robust z-score: -1.31; nuclei per well, duplicate mean: 5259; outcome: inactive

What is on record for NALF1?
migration robust z-score: 0.5; nuclei per well, duplicate mean: 5634; outcome: inactive

For BIRC8, what does the deposit list?
migration robust z-score: 0.02; nuclei per well, duplicate mean: 6501; outcome: inactive

For ZNF540, what does the deposit list?
migration robust z-score: -0.24; nuclei per well, duplicate mean: 6386; outcome: inactive

What did the screen give for RAB33A?
migration robust z-score: -0.52; nuclei per well, duplicate mean: 6712; outcome: inactive

How did the screen score TFE3?
migration robust z-score: -0.14; nuclei per well, duplicate mean: 7670; outcome: inactive

What is on record for EMILIN1?
migration robust z-score: 0.36; nuclei per well, duplicate mean: 4885; outcome: inactive

Which result is listed for ZNF821?
migration robust z-score: -1.08; nuclei per well, duplicate mean: 4832; outcome: inactive

What did the screen give for ARNT?
migration robust z-score: -0.88; nuclei per well, duplicate mean: 5145; outcome: inactive

What is on record for TTC21B?
migration robust z-score: 1.2; nuclei per well, duplicate mean: 6357; outcome: inactive

Entries listed so far whose gene name begins with P or p (3):
PRMT6 — migration robust z-score: -1.4; nuclei per well, duplicate mean: 5836; outcome: inactive
PEPD — migration robust z-score: 0.21; nuclei per well, duplicate mean: 5539; outcome: inactive
PRMT9 — migration robust z-score: -0.19; nuclei per well, duplicate mean: 5006; outcome: inactive
